Read-outs that look alike come from different tables or passages of the source. Structures were worked out from names or drawings and are uncertain.

By UniProt entry, the sequences of proteins in these tests, tags left out.
UniProt O14842, whole entry: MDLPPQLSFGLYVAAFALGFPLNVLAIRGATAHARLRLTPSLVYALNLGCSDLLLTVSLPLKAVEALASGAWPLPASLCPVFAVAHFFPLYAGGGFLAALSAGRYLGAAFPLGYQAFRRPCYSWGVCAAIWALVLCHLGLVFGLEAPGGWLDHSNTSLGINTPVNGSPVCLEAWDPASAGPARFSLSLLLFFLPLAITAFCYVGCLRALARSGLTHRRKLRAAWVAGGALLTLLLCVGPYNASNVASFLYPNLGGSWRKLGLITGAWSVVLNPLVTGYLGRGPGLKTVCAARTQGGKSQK

The experiment deals with human GPR40 (Homo sapiens, UniProt O14842). The experiment can be described thus: Induction of Ca2+ (calcium flux assay) using human GPR40 expression cell line. The experiment is classed as cell-based. Conditions: read-out: EC0.5, CHO-K1 cells expressing human GPR40, concentration giving 50% of the intracellular calcium change induced by 10 μM TAK-875. (Calcium flux is commonly read through the fluorescence of an indicator in the cells.)

Consider `CC#C[C@@H](CC(=O)O)c1ccc(OCc2cccc3c2cnn3Cc2cnc(C)cn2)cc1`, for which, under “class symbols”, the EC50 lay within 50 to 500 nM.
With `O=C(O)CC1COc2cc(OCc3ccc4cnn(CC5CCCC5)c4c3)ccc21` (stereo not drawn), under “numeric values”, the EC50 came to 500 nM.
For `O=C(O)C[C@@H](c1ccc(OCc2ccc3ccn(Cc4cnccn4)c3n2)cc1)c1ccon1`, the EC50 (numeric values) was determined as 800 nM.

The record behind these values is patent publication US9988379B2, “GPR40 receptor agonist, methods of preparing the same, and pharmaceutical compositions containing the same as an active agent” (LG CHEM, LTD., priority 2012, dated 2018).
